Source: PMC8120205
Results are given in words; binding and its absence hold for the method and conditions named. In cells and extracts the contact can be indirect. Here binding means that the protein was enriched with, or labelled near, the bait; the list need not be complete. Where a sequence is shown, tags or fusion partners need not be part of it.

Sequences of proteins named here, by UniProt entry; tags and fusion partners are left off.
UniProt Q9BQA1: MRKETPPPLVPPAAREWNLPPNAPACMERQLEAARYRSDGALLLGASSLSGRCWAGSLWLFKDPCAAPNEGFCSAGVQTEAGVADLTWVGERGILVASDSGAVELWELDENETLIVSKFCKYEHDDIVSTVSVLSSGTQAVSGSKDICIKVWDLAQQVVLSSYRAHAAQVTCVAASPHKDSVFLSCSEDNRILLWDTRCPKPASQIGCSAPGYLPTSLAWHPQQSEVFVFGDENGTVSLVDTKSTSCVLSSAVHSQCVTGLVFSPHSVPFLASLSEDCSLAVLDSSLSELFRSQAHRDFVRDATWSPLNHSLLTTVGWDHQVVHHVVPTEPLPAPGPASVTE
UniProt O14744: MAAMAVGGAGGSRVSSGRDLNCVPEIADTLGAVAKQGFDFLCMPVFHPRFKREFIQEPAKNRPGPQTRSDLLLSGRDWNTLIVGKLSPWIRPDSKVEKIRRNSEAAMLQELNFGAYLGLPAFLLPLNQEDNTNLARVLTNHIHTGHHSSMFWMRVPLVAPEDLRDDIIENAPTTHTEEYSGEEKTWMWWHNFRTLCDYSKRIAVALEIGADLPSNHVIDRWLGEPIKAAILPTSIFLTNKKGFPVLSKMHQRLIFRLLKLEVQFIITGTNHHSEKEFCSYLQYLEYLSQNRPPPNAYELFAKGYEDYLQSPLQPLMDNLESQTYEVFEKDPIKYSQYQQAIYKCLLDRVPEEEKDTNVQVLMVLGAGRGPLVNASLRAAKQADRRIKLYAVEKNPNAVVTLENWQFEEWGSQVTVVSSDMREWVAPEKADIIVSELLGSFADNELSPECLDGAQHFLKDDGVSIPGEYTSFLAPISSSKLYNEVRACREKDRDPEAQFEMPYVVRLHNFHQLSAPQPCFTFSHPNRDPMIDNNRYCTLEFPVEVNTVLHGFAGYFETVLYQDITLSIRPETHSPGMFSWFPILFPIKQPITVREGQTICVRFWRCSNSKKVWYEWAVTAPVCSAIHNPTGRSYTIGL

Target: T1, FLAG-tagged MYOCD (MYOCD 3×FLAG) (UniProt Q8IZQ8)
T1 sequence: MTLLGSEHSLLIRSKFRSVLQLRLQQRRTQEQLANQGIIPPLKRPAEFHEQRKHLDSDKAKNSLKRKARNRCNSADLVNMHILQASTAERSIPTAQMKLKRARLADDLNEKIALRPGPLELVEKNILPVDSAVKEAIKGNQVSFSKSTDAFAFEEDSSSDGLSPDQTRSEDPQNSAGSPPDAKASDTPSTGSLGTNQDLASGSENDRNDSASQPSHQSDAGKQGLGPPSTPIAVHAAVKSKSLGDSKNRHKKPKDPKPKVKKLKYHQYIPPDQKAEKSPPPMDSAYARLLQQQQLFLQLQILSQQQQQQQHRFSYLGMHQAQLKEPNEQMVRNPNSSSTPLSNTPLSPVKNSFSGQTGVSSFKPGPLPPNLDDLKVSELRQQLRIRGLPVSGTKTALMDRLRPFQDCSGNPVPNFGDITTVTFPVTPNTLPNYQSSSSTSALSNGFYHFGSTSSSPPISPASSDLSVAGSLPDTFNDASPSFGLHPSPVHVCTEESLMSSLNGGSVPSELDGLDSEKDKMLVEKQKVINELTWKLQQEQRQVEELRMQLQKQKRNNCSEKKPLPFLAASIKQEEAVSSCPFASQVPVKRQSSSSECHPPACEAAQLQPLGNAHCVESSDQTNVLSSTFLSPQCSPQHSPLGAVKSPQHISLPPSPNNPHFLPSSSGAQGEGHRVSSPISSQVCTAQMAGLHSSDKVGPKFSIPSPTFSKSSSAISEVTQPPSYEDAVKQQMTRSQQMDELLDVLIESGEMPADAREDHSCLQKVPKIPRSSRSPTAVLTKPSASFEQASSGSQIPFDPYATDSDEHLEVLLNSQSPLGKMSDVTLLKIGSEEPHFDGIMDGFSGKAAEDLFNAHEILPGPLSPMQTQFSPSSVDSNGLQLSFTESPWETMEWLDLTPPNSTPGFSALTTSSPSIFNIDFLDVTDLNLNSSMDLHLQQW
Assay: affinity purification with mass spectrometry; immunoprecipitation with antibody against Flag from 293T-MYOCD 3×FLAG cells (control: 293T-GFP 3×FLAG); SDS-PAGE, silver staining, in-gel digestion, LC-MS

Substance	binding
MEP50 (endogenous, 293T) (from UniProt Q9BQA1 1-342)	binds
PRMT5 (endogenous, 293T) (from UniProt O14744 1-637)	binds
